Assay results as given in PubChem BioAssay AID504444 (National Center for Advancing Translational Sciences (NCATS), 2011).
The whole screen tested about 360,000 compounds, of which about 7,500 (2.1%) were called active. The shares of active, inactive and inconclusive entries below differ from those in the screen. Calls follow the shape of the dose curve; as a rule, active = well fitted inhibition curve with a large enough effect; inconclusive = small, poorly fitted or top-dose-only effect, or effect the other way; inactive = flat fitted curve, though single readings scatter. Potencies beside an inconclusive call are fits to weak or partial responses and may not hold up.

Experiment: Nrf2 qHTS screen for inhibitors; also: nearly all actives have a fitted effect of over 60% in size
Conditions: A549 ARE-Fluc reporter, luciferase luminescence, 18-24 h; series mostly up to 46 µM
Method in brief: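 Concentration-response testing used A549 ARE_Fluc cells at 5000 cells/well. Following an 18-24 h compound incubation, viability was read by fluorescence (Ex 405/Em 525) and luciferase output by luminescence.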
Potency is read from the fitted curve at half-maximal effect.

Structure (SMILES)	Potency
O=c1[nH]c(C2CCCN(S(=O)(=O)c3ccccc3)C2)nc2c1nnn2Cc1ccccc1F (stereo unspecified)	inconclusive: 9.2 µM [falling, partial curve, poor fit]
O=S(=O)(c1ccc(-c2csc(Nc3ccc(Br)cc3)n2)cc1)N1CCCC1	active: 8.2 µM
COc1ccc(-c2cc(C)nc3c(-c4ccccc4)cnn23)cc1	inconclusive: 0.92 µM [activator, partial curve, poor fit]
CCCCN=C1NN=C(c2ccc3c(c2)OCCO3)CS1	inconclusive: 7.31 µM [activator, partial curve]
CC1=C(C(N)=O)C(c2cccc(C)c2)n2nc(-c3cccc(C)c3)nc2N1 (stereo unspecified)	inactive
CCCc1nc2c(C)cc(-c3nc4ccccc4n3C)cc2n1Cc1ccc(-c2ccccc2C(=O)O)cc1	inconclusive: 23.1 µM [falling, single point]
CC(C)c1ccc(OCc2nc(-c3ccccn3)no2)c(Br)c1	inconclusive: 0.731 µM [activator, full curve, poor fit]
Cc1c(C(=O)N2CCCC2)sc(NC(=O)c2cccc(Cl)c2)c1C#N	inconclusive: 16.4 µM [falling, partial curve]
COc1ccc(-c2noc(CSc3nc(C)cc(=O)[nH]3)n2)cc1OC	inconclusive: 20.6 µM [falling, partial curve, poor fit]
CCc1ccc(-n2nc(CO)c(C(=O)NCC(c3ccccc3)c3ccccc3)n2)cc1	inactive
CCOc1ccc(CNC(=O)CCn2c(=O)oc3ccccc32)cc1OC	inconclusive: 0.0046 µM [falling, full curve, poor fit]
CCOC(=O)c1c(C)[nH]c(C(=O)CSc2nnc(-c3ccncc3)n2CC)c1C	inconclusive: 13 µM [falling, partial curve]
CSc1ccccc1NC(=S)NCc1ccc(Cl)cc1	inconclusive: 18.4 µM [activator, partial curve]
COc1ccc(N2CCn3c2nc2c3c(=O)n(CCCc3ccccc3)c(=O)n2C)c(OC)c1	inconclusive: 11.6 µM [falling, partial curve]
COc1cccc(CN2C(=O)[C@H]3Cc4c([nH]c5ccccc45)C(C)(C)N3C2=O)c1	inconclusive: 29.1 µM [falling, single point]
CCOC(=O)C(=CNc1ccc2c(c1)nnn2-c1ccc(Cl)cc1)C(=O)OCC	active: 29.1 µM
CN1CCN(C(=O)C2CCCN(S(=O)(=O)c3ccccc3)C2)CC1 (stereo unspecified)	inactive
CCOc1ccc(OCC)c(-c2c(=O)n(OCc3ccc(Cl)cc3)c3ccccc3[n+]2[O-])c1	inconclusive: 9.2 µM [falling, partial curve, poor fit]
O=C(C1=C[C@@H](C2CCCCC2)C[C@@H](OCc2ccc(CO)cc2)O1)N1CCN(Cc2ccccc2)CC1	inconclusive: 20.6 µM [falling, partial curve]
Cc1csc2ncnc(N3CCN(C(=S)Nc4ccc(C(F)(F)F)cc4)CC3)c12	active: 25.9 µM
N#C/C(=N/Nc1ccc([N+](=O)[O-])cc1)C(=N)N1CCCCC1	inconclusive: 6.51 µM [activator, partial curve]

Structure (SMILES)	Potency
N=c1cc(C2(O)CCCCC2)n2c(nc3ccccc32)s1	inconclusive: 29.1 µM [falling, single point]
CCCn1c(=O)c2sccc2n2c(CCCC(=O)Nc3ccc(Oc4ccccc4)cc3)nnc12	inconclusive: 10.3 µM [falling, partial curve]
Cc1ccn(-c2ccc(NC(=O)c3cccs3)cc2)n1	inconclusive: 16.4 µM [activator, partial curve]
O=C(N/N=C/c1cc2c(cc1Br)OCO2)C1COc2ccccc2O1 (stereo unspecified)	inconclusive: 9.2 µM [activator, partial curve]
CCCN(CCC)CCNC(=S)Nc1ccc2nc3n(c(=O)c2c1)CCCCC3	inconclusive: 0.231 µM [activator, full curve, poor fit]
Cc1cc(C)n(CC(=O)N2CCCC(N3CCN(c4cccc(C(F)(F)F)c4)CC3)C2)n1 (stereo unspecified)	inconclusive: 14.6 µM [falling, single point]
CC(=O)OCON[N+]([O-])=NC1CCCCC1	inactive
CCOc1ccccc1C(=O)OCC(=O)NCCNC(=O)COC(=O)c1ccccc1OCC	inconclusive: 13 µM [activator, partial curve, poor fit]
Cc1ccc(C)c(S(=O)(=O)N2CCN(C(=O)c3ccc(OCc4c(C)noc4C)cc3)CC2)c1	inconclusive: 23.1 µM [falling, single point]
CC(=O)c1c(COC(=O)c2cccc(C)c2)nc2ccccc2[n+]1[O-]	inconclusive: 18.4 µM [falling, single point]
O=C(Nc1ccc2c(c1)OCO2)N1CCCC1	inconclusive: 23.1 µM [activator, single point]
c1ccc2cc(CCO[C@H]3CCCCO3)ncc2c1	inconclusive: 0.411 µM [activator, full curve, poor fit]
COC(=O)c1c(C)oc2ccc(N(C(=O)c3ccncc3)S(=O)(=O)c3ccc4ccccc4c3)cc12	active: 23.1 µM
COC(=O)C1=C(C)N=c2s/c(=C/c3ccoc3)c(=O)n2C1c1ccccc1 (stereo unspecified)	inconclusive: 14.6 µM [falling, partial curve]
COC(=O)c1cc(C)sc1NC(=O)CSc1ncccn1	inconclusive: 20.6 µM [falling, partial curve, poor fit]
O=C(CNc1cccc2ccccc12)c1ccc([N+](=O)[O-])cc1	inactive
O=C(NCc1ccc(F)cc1)C1CCN(c2ncnc3c2nc2n3CCCCC2)CC1	inconclusive: 29.1 µM [activator, single point]
CCCCNC(=O)CSc1nc2cc3c(cc2c(=O)n1Cc1ccco1)OCO3	inconclusive: 16.4 µM [falling, single point]
COc1ccc(CNc2oc(/C=C/c3cccc(OC)c3)nc2C#N)cc1	inactive
Cc1ccc2[nH]c(-c3ccccc3)cc(=O)c2c1	inconclusive: 4.61 µM [activator, full curve]

Shown as a markdown table: part of the list above.

| Structure (SMILES) | Potency |
| --- | --- |
| Cc1cc(C)n(CC(=O)N2CCCC(N3CCN(c4cccc(C(F)(F)F)c4)CC3)C2)n1 (stereo unspecified) | inconclusive: 14.6 µM [falling, single point] |
| CCOc1ccccc1C(=O)OCC(=O)NCCNC(=O)COC(=O)c1ccccc1OCC | inconclusive: 13 µM [activator, partial curve, poor fit] |
